Reference: PubChem BioAssay AID2685 (National Center for Advancing Translational Sciences (NCATS), 2010)
The campaign covered roughly 320,000 compounds. About 2,100 (0.66%) were called active. Inconclusive results, whose numbers are uncertain, are shown with a selection of clear calls. Calls follow the shape of the dose curve; as a rule, active = well fitted inhibition curve with a large enough effect in the signal ratio, with a control signal flat (not every such curve was filed as active); inconclusive = small, poorly fitted or top-dose-only effect, or effect the other way, or a change in a side signal; inactive = flat fitted curve, though single readings scatter; the % refers to the signal ratio. Potencies of inconclusive entries are doubtful fits and often do not repeat.

Test: qHTS Assay for Lipid Storage Modulators in Drosophila S3 Cells
Conditions: BODIPY lipid droplet fluorescence, 18-24 h, cells fed with added oleic acid; lipid storage change, negative = inhibition: at 46.1 µM (top of the series) unless noted
Method in brief: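 Drosophila S3 cells loaded with oleic acid (400 uM, as added) and compounds at several concentrations; lipid droplets imaged by 488-nm laser-scanning cytometry, 500–530 nm intensity and object ratio to cell channel. Percent activity normalized to 20 uM Triacsin C.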
% is scaled to controls: 0 for no effect and ±100 for the full control effect; potency is read from the fitted curve at half-maximal effect.

**Q.** With `Cc1ccc(-c2oc3ccccc3c(=O)c2O)cc1` as the compound, how does the lipid storage change, negative = inhibition read?
**A.** Its lipid storage change, negative = inhibition is inconclusive: 10.4%.

**Q.** For `Cc1[nH]n(-c2ccccc2)c(=O)c1N=Nc1ccccc1C(=O)O`, which lipid storage change, negative = inhibition is on record?
**A.** Its lipid storage change, negative = inhibition is inconclusive: -8.77%.

**Q.** For `CC(OC(=O)c1ccccc1NCCO)C(=O)Nc1ccc(S(=O)(=O)N2CCOCC2)cc1` (centres undefined), which lipid storage change, negative = inhibition is on record?
**A.** The lipid storage change, negative = inhibition was inconclusive: -5.19%.

**Q.** For `CCCOc1ccc(C(=O)NCCC(=O)NCCCC(=O)OCC)cc1`, which lipid storage change, negative = inhibition is on record?
**A.** The lipid storage change, negative = inhibition was inconclusive: -83.6%.

**Q.** Which lipid storage change, negative = inhibition does the source give for `COc1cccc(-n2ccnc2SCC(=O)NCc2ccccc2)c1` here?
**A.** The lipid storage change, negative = inhibition was inconclusive: 27.6%.

**Q.** With `Oc1ccc(N2CCN(c3ncnc4sc(-c5ccccc5)cc34)CC2)cc1` as the compound, how does the lipid storage change, negative = inhibition read?
**A.** The lipid storage change, negative = inhibition was inconclusive: 13.7%.

**Q.** Which Potency does the source give for `CC(C)C(=O)Nc1cccc(C(=O)Nc2ccc(S(=O)(=O)Nc3nccs3)cc2)c1` here?
**A.** The Potency was inconclusive: 29.1 µM [falling, single point].

**Q.** Which lipid storage change, negative = inhibition does the source give for `Cc1ccc(-c2cc(C(F)(F)F)nn2-c2ccc(S(N)(=O)=O)cc2)cc1` here?
**A.** The lipid storage change, negative = inhibition was inconclusive: -14.3%.

**Q.** Which lipid storage change, negative = inhibition does the source give for `Cc1ccc(C)c(NC(=O)c2cc3ccccc3o2)c1` here?
**A.** Its lipid storage change, negative = inhibition is inconclusive: -47.8%.

**Q.** For `COc1ccc(NC(=O)C(=O)NCCC2CCCCN2S(=O)(=O)c2cccs2)cc1` (centres undefined), which lipid storage change, negative = inhibition is on record?
**A.** The lipid storage change, negative = inhibition was inconclusive: 4.61%.

**Q.** For `CC(=O)O[C@@]1(C)C[C@@H](O)[C@]2(O)C=CO[C@@H](O[C@@H]3O[C@H](CO)[C@@H](O)[C@H](O)[C@H]3O)[C@@H]21`, which lipid storage change, negative = inhibition is on record?
**A.** Its lipid storage change, negative = inhibition is inconclusive: -0.175%.

**Q.** For `O=C(Nc1cccnc1)c1ccc(Cl)c(S(=O)(=O)N2CCCCC2)c1`, which Potency is on record?
**A.** Its Potency is inconclusive: 29.1 µM [falling, single point].

**Q.** For `CC(C(=O)NCCc1ccc(Cl)cc1)n1c(=O)c2cccn2c2cccnc21` (centres undefined), which Potency is on record?
**A.** Its Potency is active: 0.517 µM.

**Q.** Which lipid storage change, negative = inhibition does the source give for `CCOC(=O)c1c(N)sc(C(=O)Nc2ccccc2F)c1C` here?
**A.** Its lipid storage change, negative = inhibition is inconclusive: -4.96%.

**Q.** For `COc1ccc(CN(C)C(=O)c2[nH]c(C)c(C(C)=O)c2C)c(OC)c1OC`, which lipid storage change, negative = inhibition is on record?
**A.** Its lipid storage change, negative = inhibition is inconclusive: -30.5%.

**Q.** For `CCCc1cc(C(=O)Nc2c(C)n(C)n(-c3ccccc3)c2=O)no1`, which lipid storage change, negative = inhibition is on record?
**A.** The lipid storage change, negative = inhibition was inconclusive: 11.4%.

**Q.** Which lipid storage change, negative = inhibition does the source give for `Cn1c(=O)c2c(nc(NCc3ccccc3)n2CC(=O)NCc2ccccc2)n(C)c1=O` here?
**A.** Its lipid storage change, negative = inhibition is inconclusive: 10.8%.

**Q.** Which Potency does the source give for `CSCCC(NS(=O)(=O)c1ccc(C)cc1)C(=O)NC1CCCCCC1` (centres undefined) here?
**A.** The Potency was inconclusive: 29.1 µM [activator, single point].

**Q.** With `CCC(C)C(NC(=O)c1ccccc1NC(=O)c1ccc(OC)cc1)C(=O)NCCCn1ccnc1` (centres undefined) as the compound, how does the lipid storage change, negative = inhibition read?
**A.** The lipid storage change, negative = inhibition was inconclusive: -25.6%.

**Q.** With `COc1ccc(NC(=O)C(c2ccccc2)N(C)C(=O)CNC(C)=O)cc1` (centres undefined) as the compound, how does the lipid storage change, negative = inhibition read?
**A.** The lipid storage change, negative = inhibition was inconclusive: 13.9%.

**Q.** For `O=c1cc(O)nc(-c2ccccc2)s1`, which Potency is on record?
**A.** The Potency was inconclusive: 3.66 µM [activator, full curve].

**Q.** With `Cc1[nH]c2ccc(CNS(=O)(=O)c3ccc(S(=O)(=O)N4CCOCC4)cc3)cc2c1C` as the compound, how does the lipid storage change, negative = inhibition read?
**A.** Its lipid storage change, negative = inhibition is inconclusive: 43.4%.

**Q.** For `Cc1ccc(NC(=S)c2nc3ccccc3[nH]2)c(C)c1`, which lipid storage change, negative = inhibition is on record?
**A.** Its lipid storage change, negative = inhibition is inconclusive: 20.2%.

**Q.** With `O=C(NNC(=O)C12CC3CC(CC(C3)C1)C2)c1csc(N2CCOCC2)n1` as the compound, how does the lipid storage change, negative = inhibition read?
**A.** The lipid storage change, negative = inhibition was inconclusive: 33.2%.

**Q.** Which lipid storage change, negative = inhibition does the source give for `CCOc1ccccc1CNC(=O)C1CCN(C(=O)c2sccc2-n2cccc2)CC1` here?
**A.** Its lipid storage change, negative = inhibition is inconclusive: 13%.

**Q.** For `COc1ccc(C(C#N)(CC(=O)O)c2cnccn2)cc1OC` (centres undefined), which lipid storage change, negative = inhibition is on record?
**A.** The lipid storage change, negative = inhibition was inconclusive: 5.82%.

**Q.** Which lipid storage change, negative = inhibition does the source give for `COc1ccc(C2=C(c3ccc([N+](=O)[O-])cc3)C(=O)OC2)cc1` here?
**A.** Its lipid storage change, negative = inhibition is inconclusive: 17.4%.

**Q.** Which Potency does the source give for `C/C(=N\Nc1nc(-c2ccc(C)cc2C)cs1)c1cc2ccccc2oc1=O` here?
**A.** The Potency was inconclusive: 16.4 µM [activator, single point].

**Q.** For `CCCCN(C)C(=O)c1cc2cc3ccc(OC)cc3nc2s1`, which Potency is on record?
**A.** The Potency was inconclusive: 4.61 µM [falling, full curve, poor fit].

**Q.** With `O=C(Cn1ncc2c1-c1ccccc1OC2)N(Cc1ccco1)C1CCCCC1` as the compound, how does the lipid storage change, negative = inhibition read?
**A.** The lipid storage change, negative = inhibition was inconclusive: 58.1%.

**Q.** For `COc1cc(/C=N/NC(=O)c2c(C)nc3ccc(Cl)cn23)cc(OC)c1OC`, which lipid storage change, negative = inhibition is on record?
**A.** The lipid storage change, negative = inhibition was inconclusive: -4.45%.

**Q.** With `Fc1ccc(C2CCCCN2Cc2nc(CC3CC3)no2)cc1` (centres undefined) as the compound, how does the lipid storage change, negative = inhibition read?
**A.** Its lipid storage change, negative = inhibition is inconclusive: 7.03%.

**Q.** With `Cc1ccc(NC(=O)CCN2CCN(C)CC2)cc1` as the compound, how does the Potency read?
**A.** Its Potency is inconclusive: 5.17 µM [falling, partial curve, poor fit].

**Q.** For `Cc1ccccc1C(=O)NCCSc1ccccc1`, which lipid storage change, negative = inhibition is on record?
**A.** Its lipid storage change, negative = inhibition is inconclusive: 65.7%.

**Q.** Which lipid storage change, negative = inhibition does the source give for `CCn1c(COc2ccc(C)cc2)nnc1SCc1ccc(C#N)cc1` here?
**A.** The lipid storage change, negative = inhibition was inconclusive: 20.3%.

**Q.** For `CC1CCN(c2nc3c(c(=O)n(C)c(=O)n3C)n2CCSc2nc3ccccc3s2)CC1`, which lipid storage change, negative = inhibition is on record?
**A.** Its lipid storage change, negative = inhibition is inconclusive: -28.4%.

**Q.** With `Cc1ccc(N2C(=O)c3ccccc3C2=O)cc1` as the compound, how does the lipid storage change, negative = inhibition read?
**A.** Its lipid storage change, negative = inhibition is inconclusive: -2.83%.

**Q.** With `Cc1cc(Cl)nc(Cl)c1C(=O)NC(=O)NCCC(C)C` as the compound, how does the lipid storage change, negative = inhibition read?
**A.** The lipid storage change, negative = inhibition was inconclusive: 12%.

**Q.** With `CCn1nc(C(=O)Nc2ccccc2N2CCCC2)c2ccccc2c1=O` as the compound, how does the lipid storage change, negative = inhibition read?
**A.** Its lipid storage change, negative = inhibition is “inconclusive”.
